Source: PubChem BioAssay AID1159593 (NIAID, 2016)

Purpose: 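Canonical TLR pathway genes needed for NF-kappaB activation by LPS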
System: RAW264.7 macrophages of mouse, with reporters for p65 (GFP) and the Tnf promoter (mCherry)
Reagent: single siRNA against mouse genes
Time to read-out: 48 to 72 hours after siRNA transfection, then LPS for 40 min
Treatment: LPS (Salmonella minnesota R595) for 40 min before fixation; dose not given
Detection: 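High-content imaging of GFP-p65 moving into nuclei after 40 min LPS, plate median/MAD normalised, replicate mean of robust z-score relative to negative controls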
Direction: p65 translocation z-score: higher = more nuclear NF-kappaB p65 after LPS
Active means: 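Activity score grows with absolute z: 25 beyond 1, 50 beyond 1.5, 75 beyond 2, 100 beyond 2.5; active calls here sit at about z 1.5 or more either way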
Calls: active = changed p65 translocation (either direction); inactive = no clear change
Shown is an unselected part of 756 reagents tested. Of all reagents, 137 (18%) are marked active. 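Active means p65 translocation went either up or down; genes were judged on the median of six siRNAs, not single siRNAs.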 Not given: the amount of reagent.

gene | PubChem SID | p65 translocation z-score | Call
Map2k3 | SID303071470 | 0.53 | inactive
Map2k3 | SID303071471 | -0.186 | inactive
Map2k3 | SID303071472 | -0.34 | inactive
Map2k3 | SID303071473 | -0.563 | inactive
Map2k3 | SID303071474 | -1.48 | inactive
Map2k3 | SID303071475 | -0.357 | inactive
Myd88 | SID303071284 | -0.028 | inactive
Myd88 | SID303071285 | -2.17 | active
Myd88 | SID303071286 | -0.498 | inactive
Myd88 | SID303071287 | -1.72 | active
Myd88 | SID303071288 | -1.16 | inactive
Myd88 | SID303071289 | -1.15 | inactive
Nfkbia | SID303071386 | -1.73 | active
Nfkbia | SID303071387 | -2.87 | active
Nfkbia | SID303071388 | -1.05 | inactive
Nfkbia | SID303071389 | -0.867 | inactive
Nfkbia | SID303071390 | -1.71 | active
Nfkbia | SID303071391 | 0.274 | inactive
Map2k2 | SID303071452 | 0.585 | inactive
Map2k2 | SID303071453 | -0.666 | inactive
Map2k2 | SID303071454 | -0.246 | inactive
Map2k2 | SID303071455 | 2.72 | active
Map2k2 | SID303071456 | -0.187 | inactive
Map2k2 | SID303071457 | -0.672 | inactive
Tab2 | SID303071356 | -0.55 | inactive
Tab2 | SID303071357 | -1.04 | inactive
Tab2 | SID303071358 | 0.241 | inactive
Tab2 | SID303071359 | 0.947 | inactive
Tab2 | SID303071360 | 0.797 | inactive
Tab2 | SID303071361 | -0.354 | inactive
Fos | SID303071716 | -3.63 | active
Fos | SID303071717 | -0.179 | inactive
Fos | SID303071718 | -0.59 | inactive
Fos | SID303071719 | -1.33 | inactive
Fos | SID303071720 | -0.732 | inactive
Fos | SID303071721 | -1.05 | inactive
Nfkb1 | SID303071404 | 2.12 | active
Nfkb1 | SID303071405 | 0.117 | inactive
Nfkb1 | SID303071406 | 0.727 | inactive
Nfkb1 | SID303071407 | -0.391 | inactive
Nfkb1 | SID303071408 | 0.0882 | inactive
Nfkb1 | SID303071409 | -0.364 | inactive
Ube2v1 | SID303071320 | 1.57 | active
Ube2v1 | SID303071321 | -1.21 | inactive
Ube2v1 | SID303071322 | 0.16 | inactive
Ube2v1 | SID303071323 | -0.813 | inactive
Ube2v1 | SID303071324 | 0.846 | inactive
Ube2v1 | SID303071325 | -1.2 | inactive
Tnf | SID303071848 | -0.577 | inactive
Tnf | SID303071849 | -0.162 | inactive
Tnf | SID303071850 | -0.398 | inactive
Tnf | SID303071851 | -1.03 | inactive
Tnf | SID303071852 | -0.368 | inactive
Tnf | SID303071853 | -1.04 | inactive
Irf3 | SID303071584 | -1.13 | inactive
Irf3 | SID303071585 | 1.54 | active
Irf3 | SID303071586 | -2.11 | active
Irf3 | SID303071587 | 3.72 | active
Irf3 | SID303071588 | 0.723 | inactive
Irf3 | SID303071589 | 0.575 | inactive
Akt2 | SID303071632 | -1.05 | inactive
Akt2 | SID303071633 | -0.467 | inactive
Akt2 | SID303071634 | 0.534 | inactive
Akt2 | SID303071635 | 0.721 | inactive
Akt2 | SID303071636 | -1.09 | inactive
Akt2 | SID303071637 | 1.53 | active
Ikbke | SID303071578 | -0.738 | inactive
Ikbke | SID303071579 | -0.85 | inactive
Ikbke | SID303071580 | -1.29 | inactive
Ikbke | SID303071581 | 0.233 | inactive
Ikbke | SID303071582 | 1.1 | inactive
Ikbke | SID303071583 | -0.808 | inactive
Cxcl9 | SID303071866 | -0.554 | inactive
Cxcl9 | SID303071867 | -0.935 | inactive
Cxcl9 | SID303071868 | -0.328 | inactive
Cxcl9 | SID303071869 | -0.818 | inactive
Cxcl9 | SID303071870 | -0.725 | inactive
Cxcl9 | SID303071871 | -0.415 | inactive

7 entries from above, arranged by “p65 translocation z-score”, descending.
gene | PubChem SID | p65 translocation z-score | Call
Akt2 | SID303071637 | 1.53 | active
Ikbke | SID303071582 | 1.1 | inactive
Ikbke | SID303071581 | 0.233 | inactive
Ikbke | SID303071578 | -0.738 | inactive
Ikbke | SID303071583 | -0.808 | inactive
Ikbke | SID303071579 | -0.85 | inactive
Ikbke | SID303071580 | -1.29 | inactive
